The list shows a part of the results. Most entries show no effect beyond the scatter of the controls.
Compound: CN[C@@H]1C[C@H]2O[C@@](C)([C@@H]1OC)n1c3ccccc3c3c4c(c5c6ccccc6n2c5c31)C(=O)NC4 [staurosporine]
Test: log2 fold change of pooled soluble protein (PISA), ligand vs vehicle (log2 ratio); higher = more thermally stabilized
Details: ligand concentration: 20 uM; assay format: PISA pool 52.9/55.5/58.6 C

Protein sequences, listed by entry. Tags and fused reporters are not part of them. Lines headed by an entry give the natural chain unless they say otherwise; changes in a name come on top.
UniProt P49282: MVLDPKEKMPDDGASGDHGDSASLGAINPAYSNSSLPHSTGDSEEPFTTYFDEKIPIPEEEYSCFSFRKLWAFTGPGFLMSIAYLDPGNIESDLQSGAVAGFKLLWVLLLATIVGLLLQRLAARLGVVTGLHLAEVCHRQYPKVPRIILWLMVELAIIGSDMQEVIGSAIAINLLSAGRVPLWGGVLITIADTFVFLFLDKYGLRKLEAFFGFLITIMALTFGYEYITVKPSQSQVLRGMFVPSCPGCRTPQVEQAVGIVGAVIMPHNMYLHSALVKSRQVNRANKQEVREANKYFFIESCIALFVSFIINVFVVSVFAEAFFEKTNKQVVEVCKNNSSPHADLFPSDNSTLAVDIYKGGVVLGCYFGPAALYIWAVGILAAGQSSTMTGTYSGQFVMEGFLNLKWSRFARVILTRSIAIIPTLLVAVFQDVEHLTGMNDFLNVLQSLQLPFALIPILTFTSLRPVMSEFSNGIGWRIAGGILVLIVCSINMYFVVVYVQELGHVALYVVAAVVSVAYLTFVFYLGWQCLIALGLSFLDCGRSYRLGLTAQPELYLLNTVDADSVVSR
UniProt P55937: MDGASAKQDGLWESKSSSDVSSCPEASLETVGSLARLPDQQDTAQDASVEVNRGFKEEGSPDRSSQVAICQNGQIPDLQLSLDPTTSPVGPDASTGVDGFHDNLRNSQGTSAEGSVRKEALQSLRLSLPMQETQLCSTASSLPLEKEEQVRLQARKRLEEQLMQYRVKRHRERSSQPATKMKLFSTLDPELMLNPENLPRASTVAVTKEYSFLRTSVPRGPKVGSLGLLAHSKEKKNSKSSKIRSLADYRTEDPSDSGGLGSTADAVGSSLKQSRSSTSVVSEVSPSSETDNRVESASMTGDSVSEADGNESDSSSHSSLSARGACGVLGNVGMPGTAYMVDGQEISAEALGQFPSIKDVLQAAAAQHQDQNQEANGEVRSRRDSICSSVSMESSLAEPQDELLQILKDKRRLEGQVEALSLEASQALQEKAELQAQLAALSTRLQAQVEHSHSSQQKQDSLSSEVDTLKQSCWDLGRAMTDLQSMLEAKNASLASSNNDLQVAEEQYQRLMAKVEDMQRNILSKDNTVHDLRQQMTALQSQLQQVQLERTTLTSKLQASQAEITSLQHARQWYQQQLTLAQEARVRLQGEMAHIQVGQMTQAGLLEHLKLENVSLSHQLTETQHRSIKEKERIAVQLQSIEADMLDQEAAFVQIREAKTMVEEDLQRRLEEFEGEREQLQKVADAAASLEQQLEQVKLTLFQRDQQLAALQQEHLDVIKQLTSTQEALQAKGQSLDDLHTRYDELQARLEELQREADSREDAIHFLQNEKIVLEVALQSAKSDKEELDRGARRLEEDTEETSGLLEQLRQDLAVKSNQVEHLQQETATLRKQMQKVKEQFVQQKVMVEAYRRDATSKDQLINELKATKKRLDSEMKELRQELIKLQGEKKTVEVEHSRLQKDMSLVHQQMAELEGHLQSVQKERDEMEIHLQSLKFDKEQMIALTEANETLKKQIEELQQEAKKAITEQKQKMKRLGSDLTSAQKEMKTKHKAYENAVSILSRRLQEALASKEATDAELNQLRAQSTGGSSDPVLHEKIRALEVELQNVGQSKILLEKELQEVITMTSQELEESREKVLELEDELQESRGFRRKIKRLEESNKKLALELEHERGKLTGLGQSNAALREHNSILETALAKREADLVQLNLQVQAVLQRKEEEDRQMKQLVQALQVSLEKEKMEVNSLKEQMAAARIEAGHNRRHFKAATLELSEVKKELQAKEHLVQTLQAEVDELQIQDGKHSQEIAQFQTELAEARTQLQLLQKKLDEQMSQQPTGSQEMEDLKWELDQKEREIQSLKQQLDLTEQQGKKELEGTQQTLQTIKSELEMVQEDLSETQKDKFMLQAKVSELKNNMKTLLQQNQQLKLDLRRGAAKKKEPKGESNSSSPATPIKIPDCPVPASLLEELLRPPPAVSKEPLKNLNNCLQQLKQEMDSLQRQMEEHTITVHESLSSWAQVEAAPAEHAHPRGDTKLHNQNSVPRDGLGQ
UniProt P55012: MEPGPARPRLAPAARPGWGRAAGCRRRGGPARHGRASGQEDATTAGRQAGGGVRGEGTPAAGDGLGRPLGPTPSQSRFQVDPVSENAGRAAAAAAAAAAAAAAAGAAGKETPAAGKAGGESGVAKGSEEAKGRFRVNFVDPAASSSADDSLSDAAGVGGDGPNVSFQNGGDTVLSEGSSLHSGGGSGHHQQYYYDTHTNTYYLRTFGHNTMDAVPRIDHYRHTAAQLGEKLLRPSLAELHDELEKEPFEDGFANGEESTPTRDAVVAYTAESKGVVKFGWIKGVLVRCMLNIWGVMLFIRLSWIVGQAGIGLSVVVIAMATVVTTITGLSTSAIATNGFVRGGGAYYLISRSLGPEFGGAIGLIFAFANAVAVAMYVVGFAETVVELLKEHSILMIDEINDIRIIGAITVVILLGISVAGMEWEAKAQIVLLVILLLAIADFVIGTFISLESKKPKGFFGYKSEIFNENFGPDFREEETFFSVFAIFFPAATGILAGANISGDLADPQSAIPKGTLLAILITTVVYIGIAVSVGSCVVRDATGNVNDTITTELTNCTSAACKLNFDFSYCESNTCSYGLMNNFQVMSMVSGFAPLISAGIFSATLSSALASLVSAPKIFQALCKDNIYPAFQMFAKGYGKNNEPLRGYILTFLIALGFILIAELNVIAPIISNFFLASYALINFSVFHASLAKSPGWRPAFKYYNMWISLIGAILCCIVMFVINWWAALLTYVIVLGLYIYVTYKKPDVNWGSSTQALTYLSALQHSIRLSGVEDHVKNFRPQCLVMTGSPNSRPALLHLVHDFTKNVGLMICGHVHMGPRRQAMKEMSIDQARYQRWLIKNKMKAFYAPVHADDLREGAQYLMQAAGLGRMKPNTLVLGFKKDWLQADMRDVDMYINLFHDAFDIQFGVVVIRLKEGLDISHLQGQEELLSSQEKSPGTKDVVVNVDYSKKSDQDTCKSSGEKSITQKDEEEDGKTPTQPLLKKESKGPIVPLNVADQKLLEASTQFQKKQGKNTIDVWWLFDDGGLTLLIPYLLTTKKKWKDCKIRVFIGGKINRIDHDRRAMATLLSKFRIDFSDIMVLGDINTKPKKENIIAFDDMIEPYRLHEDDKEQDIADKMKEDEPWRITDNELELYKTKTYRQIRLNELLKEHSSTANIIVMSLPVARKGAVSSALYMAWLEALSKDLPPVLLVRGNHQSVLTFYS
UniProt P41317: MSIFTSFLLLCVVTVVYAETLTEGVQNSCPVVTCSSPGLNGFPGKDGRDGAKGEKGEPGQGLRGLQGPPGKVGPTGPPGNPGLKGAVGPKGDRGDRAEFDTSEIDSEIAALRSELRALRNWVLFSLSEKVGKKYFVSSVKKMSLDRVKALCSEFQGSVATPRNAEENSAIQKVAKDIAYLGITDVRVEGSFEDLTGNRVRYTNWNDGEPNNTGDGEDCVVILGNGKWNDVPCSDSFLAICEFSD
UniProt P35569: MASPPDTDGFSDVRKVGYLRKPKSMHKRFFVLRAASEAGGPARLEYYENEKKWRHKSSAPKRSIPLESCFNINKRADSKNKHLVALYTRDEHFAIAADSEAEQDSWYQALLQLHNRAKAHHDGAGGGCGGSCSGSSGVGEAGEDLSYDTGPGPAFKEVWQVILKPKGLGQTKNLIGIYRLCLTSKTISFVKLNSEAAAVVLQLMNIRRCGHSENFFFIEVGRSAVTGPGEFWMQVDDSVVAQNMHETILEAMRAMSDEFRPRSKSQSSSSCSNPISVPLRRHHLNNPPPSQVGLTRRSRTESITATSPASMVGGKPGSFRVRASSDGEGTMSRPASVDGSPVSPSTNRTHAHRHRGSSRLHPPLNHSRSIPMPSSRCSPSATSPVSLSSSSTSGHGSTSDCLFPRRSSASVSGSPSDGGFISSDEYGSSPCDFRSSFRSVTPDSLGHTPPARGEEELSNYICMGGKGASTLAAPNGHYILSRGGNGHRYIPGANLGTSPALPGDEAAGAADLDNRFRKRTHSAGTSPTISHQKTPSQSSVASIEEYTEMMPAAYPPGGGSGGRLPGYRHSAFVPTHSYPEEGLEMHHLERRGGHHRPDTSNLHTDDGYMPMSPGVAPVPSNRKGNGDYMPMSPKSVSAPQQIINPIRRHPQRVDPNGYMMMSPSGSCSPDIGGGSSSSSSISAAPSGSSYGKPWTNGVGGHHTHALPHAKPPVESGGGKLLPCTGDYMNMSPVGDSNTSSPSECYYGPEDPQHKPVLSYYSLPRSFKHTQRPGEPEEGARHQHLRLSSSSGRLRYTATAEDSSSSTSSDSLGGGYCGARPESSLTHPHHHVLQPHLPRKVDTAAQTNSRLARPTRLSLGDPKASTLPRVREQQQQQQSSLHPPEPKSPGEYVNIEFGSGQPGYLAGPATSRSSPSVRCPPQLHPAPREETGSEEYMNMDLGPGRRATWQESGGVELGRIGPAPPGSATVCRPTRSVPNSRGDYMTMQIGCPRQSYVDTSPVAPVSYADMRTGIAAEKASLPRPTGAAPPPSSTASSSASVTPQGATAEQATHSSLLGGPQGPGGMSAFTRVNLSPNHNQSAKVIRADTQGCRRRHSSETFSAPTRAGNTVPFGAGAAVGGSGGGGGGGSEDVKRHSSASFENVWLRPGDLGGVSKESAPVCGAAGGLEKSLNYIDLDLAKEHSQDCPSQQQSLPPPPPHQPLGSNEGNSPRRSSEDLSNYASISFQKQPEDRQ
UniProt P55772, whole entry: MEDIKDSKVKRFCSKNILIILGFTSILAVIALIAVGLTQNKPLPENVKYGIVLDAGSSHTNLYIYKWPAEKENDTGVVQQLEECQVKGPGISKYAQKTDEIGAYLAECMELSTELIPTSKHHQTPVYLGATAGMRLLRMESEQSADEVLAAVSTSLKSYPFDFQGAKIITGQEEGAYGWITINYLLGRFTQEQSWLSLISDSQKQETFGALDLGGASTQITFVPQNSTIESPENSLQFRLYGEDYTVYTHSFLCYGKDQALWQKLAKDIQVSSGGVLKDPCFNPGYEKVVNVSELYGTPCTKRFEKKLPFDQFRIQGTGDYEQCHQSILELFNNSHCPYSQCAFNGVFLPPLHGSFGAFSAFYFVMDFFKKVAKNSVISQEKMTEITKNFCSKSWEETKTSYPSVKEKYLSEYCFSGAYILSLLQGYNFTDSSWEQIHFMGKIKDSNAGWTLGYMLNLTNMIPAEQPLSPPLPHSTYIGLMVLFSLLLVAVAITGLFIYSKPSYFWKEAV
UniProt P28574, whole entry: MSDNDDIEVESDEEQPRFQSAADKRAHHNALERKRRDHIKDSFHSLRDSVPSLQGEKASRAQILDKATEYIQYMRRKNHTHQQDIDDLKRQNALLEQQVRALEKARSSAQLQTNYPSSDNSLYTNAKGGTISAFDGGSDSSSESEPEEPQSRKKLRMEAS
UniProt P47802: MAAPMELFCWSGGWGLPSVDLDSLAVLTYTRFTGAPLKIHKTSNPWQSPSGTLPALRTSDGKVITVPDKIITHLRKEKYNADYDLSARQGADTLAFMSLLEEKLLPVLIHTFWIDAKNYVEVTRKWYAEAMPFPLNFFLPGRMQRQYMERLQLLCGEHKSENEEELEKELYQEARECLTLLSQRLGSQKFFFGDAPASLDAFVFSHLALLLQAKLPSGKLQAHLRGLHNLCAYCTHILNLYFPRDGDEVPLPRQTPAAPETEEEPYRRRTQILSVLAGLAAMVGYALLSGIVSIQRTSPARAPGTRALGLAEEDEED
UniProt P52760: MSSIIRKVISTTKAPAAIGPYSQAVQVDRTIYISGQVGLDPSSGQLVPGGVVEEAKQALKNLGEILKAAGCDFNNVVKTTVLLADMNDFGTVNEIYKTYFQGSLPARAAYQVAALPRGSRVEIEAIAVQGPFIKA
UniProt P35564: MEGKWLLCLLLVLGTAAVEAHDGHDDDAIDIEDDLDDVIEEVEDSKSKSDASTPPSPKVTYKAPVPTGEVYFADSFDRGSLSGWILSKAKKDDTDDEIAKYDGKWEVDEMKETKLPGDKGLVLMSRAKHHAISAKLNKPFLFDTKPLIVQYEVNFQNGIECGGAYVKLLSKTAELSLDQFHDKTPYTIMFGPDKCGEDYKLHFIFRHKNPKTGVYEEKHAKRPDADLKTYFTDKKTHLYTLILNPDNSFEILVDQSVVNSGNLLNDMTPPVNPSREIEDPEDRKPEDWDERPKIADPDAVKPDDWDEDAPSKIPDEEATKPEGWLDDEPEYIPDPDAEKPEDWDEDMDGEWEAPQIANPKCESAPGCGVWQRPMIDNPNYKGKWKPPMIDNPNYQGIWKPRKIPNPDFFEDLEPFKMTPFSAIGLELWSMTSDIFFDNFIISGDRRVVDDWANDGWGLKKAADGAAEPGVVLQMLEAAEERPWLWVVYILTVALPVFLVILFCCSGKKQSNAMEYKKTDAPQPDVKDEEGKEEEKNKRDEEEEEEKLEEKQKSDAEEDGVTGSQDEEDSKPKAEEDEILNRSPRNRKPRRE
UniProt P45878: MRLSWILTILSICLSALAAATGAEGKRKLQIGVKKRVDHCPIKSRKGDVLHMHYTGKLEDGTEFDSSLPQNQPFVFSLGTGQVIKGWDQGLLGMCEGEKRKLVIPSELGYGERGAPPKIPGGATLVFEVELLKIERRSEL

Target	log2 fold change of pooled soluble protein
UniProt P49282	0.276
UniProt P55937	-0.014
UniProt P55012	-0.251
UniProt P41317	-0.142
UniProt P52623	0.0547
UniProt P49817	-0.521
UniProt P55065	0.0757
UniProt P35569	-0.004
UniProt P49312	-0.0725
UniProt P47740	0.0157
UniProt P42867	0.0678
UniProt P49710	-0.0772
UniProt P34927	-0.0739
UniProt P55772	-0.0822
UniProt P51437	-0.218
UniProt P54823	0.295
UniProt P46061	0.0829
UniProt P46737	0.0669
UniProt P40630	-0.101

Reformatted: entries from further up.
UniProt P47740
  log2 fold change of pooled soluble protein = 0.0157
UniProt P42867
  log2 fold change of pooled soluble protein = 0.0678
UniProt P49710
  log2 fold change of pooled soluble protein = -0.0772

Following part:

Target	log2 fold change of pooled soluble protein
UniProt P35802	0.0948
UniProt P48758	-0.0482
UniProt P54227	-0.0493
UniProt P30416	-0.00268
UniProt P54775	0.027
UniProt P51660	-0.0367
UniProt P43274	-0.0577
UniProt P54726	0.161
UniProt P28574	-0.0321
UniProt P47802	0.191
UniProt P35278	-0.0559
UniProt P52760	-0.0105
UniProt P35564	0.126
UniProt P55264	0.0103
UniProt P40237	-0.123
UniProt P45878	0.392
UniProt P52633	0.0554
UniProt P28843	0.00955
